The text below walks through data of publication PMC12730105, “The Interaction Between PGD2 and G6PD6 Is Involved in Aromatic Amino Acid Synthesis” (Biology, 2025).

No constants are given. Whether binding was seen depends on the method and setting. In cells and extracts the contact can be indirect. A result given as binding can be weak or reduced; the word gives no strength. Sequences can lack the tags named with a protein.

The target in test [1] is T1, 6-phosphogluconate dehydrogenase 2 (PGD2), full length, split-YFP fusion PGD2-NYFP (Arabidopsis thaliana) (UniProt Q9FWA3).
T1 sequence: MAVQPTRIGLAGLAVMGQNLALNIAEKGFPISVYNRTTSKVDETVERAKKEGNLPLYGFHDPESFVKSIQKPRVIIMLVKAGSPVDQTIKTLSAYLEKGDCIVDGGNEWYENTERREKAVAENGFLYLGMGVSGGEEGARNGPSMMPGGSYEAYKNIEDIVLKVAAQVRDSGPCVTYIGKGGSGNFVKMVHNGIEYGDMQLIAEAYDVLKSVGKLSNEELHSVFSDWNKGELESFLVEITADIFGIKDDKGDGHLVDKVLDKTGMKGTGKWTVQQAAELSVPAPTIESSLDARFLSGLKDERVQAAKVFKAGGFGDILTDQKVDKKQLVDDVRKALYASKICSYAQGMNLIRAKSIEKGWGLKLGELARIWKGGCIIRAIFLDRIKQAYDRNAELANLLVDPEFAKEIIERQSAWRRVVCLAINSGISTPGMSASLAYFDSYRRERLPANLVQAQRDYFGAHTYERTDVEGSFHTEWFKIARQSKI
Description: split reporter; BiFC with split YFP (pCNHP-CYFP and pCNHP-NYFP fusions), transient expression in N. benthamiana leaves by Agrobacterium infiltration, confocal microscopy 3 days after infiltration.

For test [2], the target named is T2, glucose-6-phosphate dehydrogenase 6 (G6PD6), full length, split-YFP fusion G6PD6-CYFP (Arabidopsis thaliana) (UniProt Q9FJI5).
T2 sequence: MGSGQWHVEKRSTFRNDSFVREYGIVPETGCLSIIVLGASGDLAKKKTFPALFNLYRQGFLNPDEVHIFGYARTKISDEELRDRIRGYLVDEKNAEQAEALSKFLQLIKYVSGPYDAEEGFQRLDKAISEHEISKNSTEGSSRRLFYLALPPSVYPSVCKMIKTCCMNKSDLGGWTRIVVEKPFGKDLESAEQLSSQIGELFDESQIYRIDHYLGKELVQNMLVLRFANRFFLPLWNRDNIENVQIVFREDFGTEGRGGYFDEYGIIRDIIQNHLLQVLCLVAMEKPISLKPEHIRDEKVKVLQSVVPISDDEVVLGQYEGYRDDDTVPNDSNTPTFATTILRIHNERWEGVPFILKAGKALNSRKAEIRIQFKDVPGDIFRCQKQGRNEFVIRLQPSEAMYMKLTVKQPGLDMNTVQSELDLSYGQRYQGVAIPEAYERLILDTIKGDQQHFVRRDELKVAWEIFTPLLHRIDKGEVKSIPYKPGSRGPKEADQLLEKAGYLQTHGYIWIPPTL
Described as above.

For the substance “C-terminal region of PGD2 (domain mapping, BiFC fusion) (Arabidopsis thaliana) (domain or fragment)”, the binding result in test [1] and in test [2] was “binds” throughout.
